The list shows a part of the results. Many values rest on one well or one pass, so single values are uncertain.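 Imaging used 1,536-well plates; nuclei positive for cleaved PARP by antibody were divided by total DNA-stained nuclei to yield the apoptosis fraction. Doses for screening kept most cells viable, and cell lines differ markedly in resting and induced cleaved-PARP levels.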
tested on: LB2518-MEL; assay: cleaved PARP positive nuclei fraction relative to DMSO control; melanoma cells; higher = more apoptosis; conditions: library dose: low library concentration; 72 h

| SMILES | cleaved PARP positive nuclei fraction [%] |
| --- | --- |
| NCC(=O)Nc1ccc(-n2nc(C(F)(F)F)cc2-c2ccc3c(ccc4ccccc43)c2)cc1 + O=S(=O)(c1ccccc1)N(CC(F)(F)F)c1ccc(C(O)(C(F)(F)F)C(F)(F)F)cc1 [T0901317] (first compound 1 µM, partner dose 1.4 µM) | 80.4 |
| CCCCCCCCCCCC1=C(O)C(=O)C=C(O)C1=O [Embelin] + CC(C)CCN1c2nc(Nc3cc(F)c(O)c(F)c3)ncc2N(C)C(=O)C1C [BID1870] (first compound 1.2 µM, partner dose 0.2 µM) | 176 |
| CCc1ccc(CCOc2ccc(CC3SC(=O)NC3=O)cc2)nc1 (stereo unspecified) [pioglitazone] + Oc1nc(-c2ccc(C(F)(F)F)cc2)nc2c1CSCC2 [XAV939] (first compound 2 µM, partner dose 2 µM) | 87.2 |
| COc1ccc2c(c1)CCC1C2CCC2(C)C(NCCCCCCN3C(=O)C=CC3=O)CCC12 (stereo unspecified) + COc1cc2ncnc(Nc3ccc(Oc4ccccc4)cc3)c2cc1OC [SrcI1] (first compound 0.4 µM, partner dose 2 µM) | 146 |
| COc1ccc2c(c1)CCC1C2CCC2(C)C(NCCCCCCN3C(=O)C=CC3=O)CCC12 (stereo unspecified) + Oc1cc(-c2nc(-c3ccccc3)[nH]c2-c2ccncc2)ccc1Cl [L779450] (first compound 0.4 µM, partner dose 0.2 µM) | 108 |
| COc1cc2ncnc(Nc3ccc(Oc4ccccc4)cc3)c2cc1OC + Cc1cc([N+](=O)[O-])ccc1NS(=O)(=O)c1cc(Cl)ccc1Cl [FH535] (first compound 2 µM, partner dose 1 µM) | 143 |
| O=C(Nc1ccccc1)c1cc([N+](=O)[O-])ccc1Cl + CCN(CC)CCCCNc1ncc2cc(-c3cc(OC)cc(OC)c3)c(NC(=O)NC(C)(C)C)nc2n1 [PD173074] (first compound 2 µM, partner dose 0.1 µM) | 87 |
| N#Cc1c(O)c2c(-c3ccc(-c4ccccc4O)cc3)csc2[nH]c1=O + O=C(O)C(=O)Nc1sc2c(c1C(=O)O)CCNC2 [TCS401] (first compound 2 µM, partner dose 1.66667 µM) | 70.6 |
| NCC(=O)Nc1ccc(-n2nc(C(F)(F)F)cc2-c2ccc3c(ccc4ccccc43)c2)cc1 + Cc1cc([N+](=O)[O-])ccc1NS(=O)(=O)c1cc(Cl)ccc1Cl [FH535] (first compound 1 µM, partner dose 1 µM) | 169 |
| CCc1ccc(CCOc2ccc(CC3SC(=O)NC3=O)cc2)nc1 (stereo unspecified) [pioglitazone] + CCCCCCCCCCCC1=C(O)C(=O)C=C(O)C1=O [Embelin] (first compound 2 µM, partner dose 1.2 µM) | 76.1 |
| Oc1nc(-c2ccc(C(F)(F)F)cc2)nc2c1CSCC2 + CCCCCCCCCCCC1=C(O)C(=O)C=C(O)C1=O [Embelin] (first compound 2 µM, partner dose 1.2 µM) | 79.8 |
| Cc1cc([N+](=O)[O-])ccc1NS(=O)(=O)c1cc(Cl)ccc1Cl + COc1cc(N2CCC(N3CCN(C)CC3)CC2)ccc1Nc1ncc(Cl)c(Nc2ccccc2S(=O)(=O)C(C)C)n1 [NVP-TAE684] (first compound 1 µM, partner dose 0.08 µM) | 170 |
| COc1cc2ncnc(Nc3ccc(Oc4ccccc4)cc3)c2cc1OC + Cn1cc(/C=C2\C(=O)Nc3cccnc32)c2ccccc21 [GW441756] (first compound 2 µM, partner dose 0.4 µM) | 58.1 |
| CN(C)S(=O)(=O)c1ccc2c(c1)/C(=C/c1cc3c([nH]1)CCCC3)C(=O)N2 + O=C1NC(=O)/C(=C/c2ccc(-c3ccc(F)cc3O)o2)S1 [AS252424] (first compound 0.4 µM, partner dose 1 µM) | 85.5 |
| COc1cc2ncnc(Nc3ccc(Oc4ccccc4)cc3)c2cc1OC + CCCCCCCCCCCC1=C(O)C(=O)C=C(O)C1=O [Embelin] (first compound 2 µM, partner dose 1.2 µM) | 61.3 |
| O=C(O)c1ccc(-c2c[nH]c3ncc(-c4ccccc4)cc23)cc1C1CCCC1 + COc1cc2ncnc(Nc3ccc(Oc4ccccc4)cc3)c2cc1OC [SrcI1] (first compound 0.16 µM, partner dose 2 µM) | 143 |
| NCC(=O)Nc1ccc(-n2nc(C(F)(F)F)cc2-c2ccc3c(ccc4ccccc43)c2)cc1 + Oc1cc(-c2nc(-c3ccccc3)[nH]c2-c2ccncc2)ccc1Cl [L779450] (first compound 1 µM, partner dose 0.2 µM) | 102 |
| COc1cc2c(Oc3ccc4[nH]c(C)cc4c3F)ncnc2cc1OCCCN1CCCC1 [cediranib] + O=C1NC(=O)/C(=C/c2ccc(-c3ccc(F)cc3O)o2)S1 [AS252424] (first compound 0.4 µM, partner dose 1 µM) | 94.2 |

Copied from the list:
COc1cc2ncnc(Nc3ccc(Oc4ccccc4)cc3)c2cc1OC + CCCCCCCCCCCC1=C(O)C(=O)C=C(O)C1=O [Embelin] (first compound 2 µM, partner dose 1.2 µM) | cleaved PARP positive nuclei fraction [%]: 61.3
COc1cc2c(Oc3ccc4[nH]c(C)cc4c3F)ncnc2cc1OCCCN1CCCC1 [cediranib] + O=C1NC(=O)/C(=C/c2ccc(-c3ccc(F)cc3O)o2)S1 [AS252424] (first compound 0.4 µM, partner dose 1 µM) | cleaved PARP positive nuclei fraction [%]: 94.2

Next part.

| SMILES | cleaved PARP positive nuclei fraction [%] |
| --- | --- |
| CN(C)S(=O)(=O)c1ccc2c(c1)/C(=C/c1cc3c([nH]1)CCCC3)C(=O)N2 + Cn1cc(/C=C2\C(=O)Nc3cccnc32)c2ccccc21 [GW441756] (first compound 0.4 µM, partner dose 0.4 µM) | 183 |
| N#Cc1c(O)c2c(-c3ccc(-c4ccccc4O)cc3)csc2[nH]c1=O + Cn1cc(/C=C2\C(=O)Nc3cccnc32)c2ccccc21 [GW441756] (first compound 2 µM, partner dose 0.4 µM) | 79.8 |
| O=C(Nc1ccccc1)c1cc([N+](=O)[O-])ccc1Cl + CCCCCCCCCCCC1=C(O)C(=O)C=C(O)C1=O [Embelin] (first compound 2 µM, partner dose 1.2 µM) | 88.3 |
| CCc1ccc(CCOc2ccc(CC3SC(=O)NC3=O)cc2)nc1 (stereo unspecified) [pioglitazone] + O=C(Nc1ccccc1)c1cc([N+](=O)[O-])ccc1Cl [GW9662] (first compound 2 µM, partner dose 2 µM) | 100 |
| COc1ccc2c(c1)CCC1C2CCC2(C)C(NCCCCCCN3C(=O)C=CC3=O)CCC12 (stereo unspecified) + CCCCCCCCCCCC1=C(O)C(=O)C=C(O)C1=O [Embelin] (first compound 0.4 µM, partner dose 1.2 µM) | 82.6 |
| Oc1cc(-c2nc(-c3ccccc3)[nH]c2-c2ccncc2)ccc1Cl + CCCCCCCCCCCC1=C(O)C(=O)C=C(O)C1=O [Embelin] (first compound 0.2 µM, partner dose 1.2 µM) | 165 |
| Oc1cc(-c2nc(-c3ccccc3)[nH]c2-c2ccncc2)ccc1Cl + Cc1cc([N+](=O)[O-])ccc1NS(=O)(=O)c1cc(Cl)ccc1Cl [FH535] (first compound 0.2 µM, partner dose 1 µM) | 88.4 |
| COc1cc2c(Oc3ccc4[nH]c(C)cc4c3F)ncnc2cc1OCCCN1CCCC1 [cediranib] + CCCCCCCCCCCC1=C(O)C(=O)C=C(O)C1=O [Embelin] (first compound 0.4 µM, partner dose 1.2 µM) | 85.9 |
| NCC(=O)Nc1ccc(-n2nc(C(F)(F)F)cc2-c2ccc3c(ccc4ccccc43)c2)cc1 + Cn1cc(/C=C2\C(=O)Nc3cccnc32)c2ccccc21 [GW441756] (first compound 1 µM, partner dose 0.4 µM) | 255 |
| Oc1nc(-c2ccc(C(F)(F)F)cc2)nc2c1CSCC2 + O=c1cc(-c2cccc3c2Sc2ccccc2S3)oc(N2CCOCC2)c1 [KU55933] (first compound 2 µM, partner dose 1 µM) | 69.2 |
| O=C(O)C(=O)Nc1sc2c(c1C(=O)O)CCNC2 + O=C1NC(=O)/C(=C/c2ccc(-c3ccc(F)cc3O)o2)S1 [AS252424] (first compound 1.66667 µM, partner dose 1 µM) | 44.3 |
| COC(=O)c1sccc1S(=O)(=O)Nc1ccc(Nc2ccccc2)cc1OC + COc1cc(N2CCC(N3CCN(C)CC3)CC2)ccc1Nc1ncc(Cl)c(Nc2ccccc2S(=O)(=O)C(C)C)n1 [NVP-TAE684] (first compound 1 µM, partner dose 0.08 µM) | 85.3 |
| NCC(=O)Nc1ccc(-n2nc(C(F)(F)F)cc2-c2ccc3c(ccc4ccccc43)c2)cc1 + COc1ccc(-c2ccc3c(N4CCOCC4)nc(N4C[C@@H](C)O[C@@H](C)C4)nc3n2)cc1CO [KU0063794] (first compound 1 µM, partner dose 0.02 µM) | 39.1 |
| CN(C)S(=O)(=O)c1ccc2c(c1)/C(=C/c1cc3c([nH]1)CCCC3)C(=O)N2 + N#Cc1c(O)c2c(-c3ccc(-c4ccccc4O)cc3)csc2[nH]c1=O [A769662] (first compound 0.4 µM, partner dose 2 µM) | 58 |
| CN(C)S(=O)(=O)c1ccc2c(c1)/C(=C/c1cc3c([nH]1)CCCC3)C(=O)N2 + Oc1nc(-c2ccc(C(F)(F)F)cc2)nc2c1CSCC2 [XAV939] (first compound 0.4 µM, partner dose 2 µM) | 163 |
| COc1cc2ncnc(Nc3ccc(Oc4ccccc4)cc3)c2cc1OC + Oc1cc(-c2nc(-c3ccccc3)[nH]c2-c2ccncc2)ccc1Cl [L779450] (first compound 2 µM, partner dose 0.2 µM) | 181 |
| NCC(=O)Nc1ccc(-n2nc(C(F)(F)F)cc2-c2ccc3c(ccc4ccccc43)c2)cc1 + CCCCCCCCCCCC1=C(O)C(=O)C=C(O)C1=O [Embelin] (first compound 1 µM, partner dose 1.2 µM) | 45.4 |
| COc1cc2ncnc(Nc3ccc(Oc4ccccc4)cc3)c2cc1OC + c1cc(-c2cnn3cc(-c4ccc(OCCN5CCCCC5)cc4)cnc23)ccn1 [Dorsomorphin] (first compound 2 µM, partner dose 0.4 µM) | 59.5 |
